Reference: PubChem BioAssay AID1671195 (Yale University, 2021)
The deposit covers about 22,000 reagents; this is a part drawn at random. About 1,510 of them (6.9%) were called active. 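Active includes knockdowns raising or lowering LDL uptake; positive z-scores mean more uptake, negative mean less.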 Reagents against one gene are numbered here. No sequences are given here.

- Test: 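Knockdowns that increase or decrease uptake of fluorescent LDL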 (primary screen)
- System: human Huh7 hepatoma cells
- Reagents: siRNA pool against human genes, 18 nM
- Timing: about 2 to 2.5 days of knockdown, then 8 h LDL uptake
- Treatment: DiI-labelled LDL at 30 µg/ml for 8 h, in lipoprotein-deficient serum medium
- Detection: 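Per-cell DiI-LDL intensity by automated imaging; well means scaled to the plate median and given as a robust z-score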
- Direction: robust z-score: higher = more LDL uptake after knockdown
- Active means: 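a gene counts as active if at least two replicate z-scores exceed ±2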

Target gene,reagent,"robust z-score, replicate 1","robust z-score, replicate 2","robust z-score, replicate 3",outcome
SAMD9 (GeneID 54809),1,1.63,2.27,1.88,inactive
CDH8 (GeneID 1006),1,-0.345,-0.56,-0.506,inactive
LOC442464 (retired record) (GeneID 442464),1,1.57,1.44,0.229,inactive
RPL23P5 (GeneID 402120),1,0.488,0.714,-0.0279,inactive
LOC400053 (retired record) (GeneID 400053),1,0.0103,0.357,0.601,inactive
ZNF32 (GeneID 7580),1,-0.195,-0.386,0.0693,inactive
AVPR1A (GeneID 552),1,0.414,-0.125,-0.187,inactive
LINC00642 (GeneID 400238),1,-0.411,-0.667,-0.706,inactive
DPT (GeneID 1805),1,-0.729,-0.762,-0.491,inactive
DCP1B (GeneID 196513),1,-0.822,-0.783,0.665,inactive
DACH2 (GeneID 117154),1,1.71,1.47,2.07,inactive
CYREN (GeneID 78996),1,-1.67,-1.44,-1.74,inactive
KLC2 (GeneID 64837),1,1.1,-0.26,-0.11,inactive
ZNF695 (GeneID 57116),1,-0.165,0.8,0.375,inactive
OSTCP1 (GeneID 202459),1,-0.243,-0.628,-0.887,inactive
LOC390009 (retired record) (GeneID 390009),1,1.47,0.244,0.889,inactive
HPF1P1 (GeneID 389705),1,0.518,0.908,0.636,inactive
EMC1 (GeneID 23065),1,1.2,-1.29,1.64,inactive
LOC442219 (retired record) (GeneID 442219),1,-0.28,-0.539,-0.729,inactive
NKPD1 (GeneID 284353),1,0.374,0.53,0.355,inactive
OR8H2 (GeneID 390151),1,3.29,3.3,3.68,active
BTBD7 (GeneID 55727),1,1.8,-0.194,-0.503,inactive
TLDC2 (GeneID 140711),1,1.36,1.84,0.708,inactive
PGBD2 (GeneID 267002),1,-1.17,-1.08,-1.07,inactive
OLIG1 (GeneID 116448),1,-0.302,-0.578,-0.823,inactive
LOC254938 (retired record) (GeneID 254938),1,0.522,1.12,1.13,inactive
RNASE3 (GeneID 6037),1,-0.85,-1.13,-0.77,inactive
CDHR4 (GeneID 389118),1,-0.32,-0.663,-0.18,inactive
GPR83 (GeneID 10888),1,-0.705,-1.64,-1.35,inactive
ACOX1 (GeneID 51),1,-0.662,-0.2,0.114,inactive
LINS1 (GeneID 55180),1,0.666,0.129,2.01,inactive
LINC02687 (GeneID 399886),1,0.136,-0.676,-0.601,inactive
THUMPD1P1 (GeneID 391276),1,-0.257,0.0963,-0.015,inactive
LOC442081 (retired record) (GeneID 442081),1,-0.154,-0.103,-0.385,inactive
MAGEC1 (GeneID 9947),1,-1.83,-1.31,1.38,inactive
KYAT3 (GeneID 56267),1,0.252,-0.166,0.179,inactive
KRT19 (GeneID 3880),1,0.297,0.674,-0.03,inactive

Records above whose gene name starts with O or o (3):
Target gene,reagent,"robust z-score, replicate 1","robust z-score, replicate 2","robust z-score, replicate 3",outcome
OSTCP1 (GeneID 202459),1,-0.243,-0.628,-0.887,inactive
OR8H2 (GeneID 390151),1,3.29,3.3,3.68,active
OLIG1 (GeneID 116448),1,-0.302,-0.578,-0.823,inactive

Next records follow.
Target gene,reagent,"robust z-score, replicate 1","robust z-score, replicate 2","robust z-score, replicate 3",outcome
FAT4 (GeneID 79633),1,1.59,0.841,1.49,inactive
FAT4 (GeneID 79633),2,0.272,0.144,0.14,inactive
PRKXP1 (GeneID 441733),1,-0.469,-0.826,-0.272,inactive
ABCB5 (GeneID 340273),1,-0.507,0.244,-0.647,inactive
FKBP1B (GeneID 2281),1,0.165,0.519,-0.0919,inactive
FAM237A (GeneID 200726),1,-0.481,-0.557,-0.429,inactive
SHMT2 (GeneID 6472),1,-0.369,-0.18,0.256,inactive
SRF (GeneID 6722),1,2.48,2.8,1.65,active
NADK2 (GeneID 133686),1,-0.716,-1.6,-0.692,inactive
CEP55 (GeneID 55165),1,-0.0196,-0.752,0.149,inactive
SP100 (GeneID 6672),1,-1.76,-2.01,-1.89,inactive
SNX29 (GeneID 92017),1,1.5,0.732,1.26,inactive
MORN2 (GeneID 729967),1,0.831,0.174,-0.0499,inactive
SATB2-AS1 (GeneID 150538),1,0.198,-0.543,-0.241,inactive
EIF3I (GeneID 8668),1,-1.42,-0.531,-0.853,inactive
CLN6 (GeneID 54982),1,-1.1,0.0713,-0.0256,inactive
LOC441041 (retired record) (GeneID 441041),1,0.879,0.187,0.038,inactive
IL17REL (GeneID 400935),1,-1.41,-1.43,-1.14,inactive
ILK (GeneID 3611),1,-0.747,-0.719,-0.635,inactive
PPIAP58 (GeneID 126170),1,-0.232,-0.919,-1.22,inactive
PALS2 (GeneID 51678),1,-0.369,-1.19,-0.739,inactive
RPS23 (GeneID 6228),1,-0.693,0.684,-0.141,inactive
LRRK1 (GeneID 79705),1,-0.0591,0.566,0.163,inactive
PERM1 (GeneID 84808),1,1.04,0.71,0.758,inactive
ABHD6 (GeneID 57406),1,-0.492,-0.967,-0.809,inactive
SH3BP5L (GeneID 80851),1,-0.109,0.185,0.594,inactive
LOC388806 (retired record) (GeneID 388806),1,-0.494,-0.688,-0.282,inactive
MINDY2 (GeneID 54629),1,0.828,0.732,1.48,inactive
DEFB107A (GeneID 245910),1,-0.672,-0.881,-0.662,inactive
FCF1 (GeneID 51077),1,0.971,0.487,0.755,inactive
LHX5 (GeneID 64211),1,0.911,2.11,1.15,inactive
PCDHGA8 (GeneID 9708),1,-0.406,-0.212,-0.199,inactive
SERPINA1 (GeneID 5265),1,0.833,-0.354,0.623,inactive
DDX3X (GeneID 1654),1,0.431,-1.29,-0.22,inactive
FKBP5 (GeneID 2289),1,-0.253,-0.0755,-0.473,inactive
SLC25A39 (GeneID 51629),1,-0.48,0.634,0.157,inactive
LOC441991 (retired record) (GeneID 441991),1,-0.427,-0.147,-0.106,inactive
LOC391767 (retired record) (GeneID 391767),1,3.77,2.61,3.23,active
STK40 (GeneID 83931),1,-0.431,0.109,-0.0199,inactive
NTPCR (GeneID 84284),1,-0.00461,0.278,-0.109,inactive
TMEM70 (GeneID 54968),1,0.201,-0.0513,0.00619,inactive
LOC400751 (retired record) (GeneID 400751),1,3.1,2.44,2.79,active
EPM2AIP1 (GeneID 9852),1,0.138,-0.759,-0.993,inactive
RNF144A (GeneID 9781),1,2.14,1.46,1.77,inactive
SULT1E1 (GeneID 6783),1,-1.38,-1.31,-0.794,inactive
ZXDC (GeneID 79364),1,-0.399,-0.113,-0.0262,inactive
LOC440008 (retired record) (GeneID 440008),1,-0.522,-0.0427,-0.685,inactive
HCCAT5 (GeneID 283902),1,-0.457,-0.446,-0.361,inactive
VPS29 (GeneID 51699),1,-0.663,0.631,-0.99,inactive
SMURF2 (GeneID 64750),1,-0.308,-0.414,-1.1,inactive
